No constants are given. Whether binding was seen depends on the method and setting. Binding seen in cells or lysates may run through a third protein. Here binding means that the protein was enriched with, or labelled near, the bait; the list need not be complete. Where a sequence is shown, tags or fusion partners need not be part of it.
Target: T1, GST-AF-1 (1–92) (human) (UniProt P10276)
T1 sequence: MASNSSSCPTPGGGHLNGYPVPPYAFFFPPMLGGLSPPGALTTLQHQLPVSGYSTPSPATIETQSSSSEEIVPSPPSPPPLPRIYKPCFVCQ
Experiment: affinity purification with mass spectrometry; GST-AF-1 immobilised on beads (20 µg) incubated at 4°C for 6–10 hours with 2–6 mg HeLa nuclear extract in 20 mM Tris-HCl pH 7.9, 100 mM KCl, 0.1% NP-40, 1 mg/mL BSA; washes with 150 mM KCl and 0.3% NP-40; SDS-PAGE bands analysed by MALDI-TOF; only the target purified

By UniProt entry, the sequences of proteins in these tests, tags left out.
UniProt P32780: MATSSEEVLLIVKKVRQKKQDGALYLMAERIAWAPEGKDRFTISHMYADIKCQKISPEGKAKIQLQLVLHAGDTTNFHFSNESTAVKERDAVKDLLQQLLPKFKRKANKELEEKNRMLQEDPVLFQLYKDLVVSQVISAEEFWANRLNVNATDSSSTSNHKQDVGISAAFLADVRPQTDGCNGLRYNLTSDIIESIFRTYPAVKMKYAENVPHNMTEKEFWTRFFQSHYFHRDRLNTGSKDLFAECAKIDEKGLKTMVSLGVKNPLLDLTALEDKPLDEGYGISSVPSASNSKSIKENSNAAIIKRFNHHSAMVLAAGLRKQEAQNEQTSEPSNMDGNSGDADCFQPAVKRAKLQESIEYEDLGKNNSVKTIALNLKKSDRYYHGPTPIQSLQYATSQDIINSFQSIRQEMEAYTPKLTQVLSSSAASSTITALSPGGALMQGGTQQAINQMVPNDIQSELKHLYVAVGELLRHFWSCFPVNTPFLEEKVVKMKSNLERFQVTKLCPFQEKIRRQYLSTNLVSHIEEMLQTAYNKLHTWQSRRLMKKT
UniProt P42568: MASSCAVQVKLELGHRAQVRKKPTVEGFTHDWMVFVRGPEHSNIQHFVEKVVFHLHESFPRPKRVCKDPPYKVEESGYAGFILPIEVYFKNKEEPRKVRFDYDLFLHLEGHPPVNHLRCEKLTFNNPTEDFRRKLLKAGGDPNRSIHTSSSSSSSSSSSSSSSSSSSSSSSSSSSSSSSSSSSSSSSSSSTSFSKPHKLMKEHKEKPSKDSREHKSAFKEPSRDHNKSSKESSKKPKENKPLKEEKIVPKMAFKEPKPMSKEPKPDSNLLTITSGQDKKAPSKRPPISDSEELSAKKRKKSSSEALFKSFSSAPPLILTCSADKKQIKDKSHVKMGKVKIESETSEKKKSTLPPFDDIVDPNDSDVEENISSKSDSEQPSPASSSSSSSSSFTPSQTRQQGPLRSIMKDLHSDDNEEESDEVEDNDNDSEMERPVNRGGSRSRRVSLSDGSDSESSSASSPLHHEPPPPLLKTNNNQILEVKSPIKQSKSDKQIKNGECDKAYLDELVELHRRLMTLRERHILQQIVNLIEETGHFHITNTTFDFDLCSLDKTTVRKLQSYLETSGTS

Row | binding | Substance
1 | binds | p62 subunit of TFIIH (BTF2) (from UniProt P32780 1-548)
2 | binds | AF9/MLLT3 (ALL1 fused gene from chromosome 9) (from UniProt P42568 1-568)

Source: paper PMC3677938
